{"source": "PubChem BioAssay AID1259308 (NCATS, 2017)", "purpose": "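Knock-downs that increase output of a recombinant reporter protein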 (primary screen)", "cell system": "human HEK293 embryonic kidney cells stably expressing firefly luciferase (HEK-CMV-Luc2-Hygro)", "reagents": "single siRNA against human genes, 0.8 pmol siRNA per well", "timing": "72 h", "read-out": "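Luciferase light (ONE-Glo) measured on one replicate plate set and viability (CellTiter-Glo) on the other, scaled to a negative control siRNA, with robust z-scores and luciferase per cell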", "reading the numbers": "total luciferase, z-score: higher = more reporter protein produced", "rule for the call": "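Active when the median/MAD z-score for overall luciferase is greater than 3; a gene was taken forward for validation with new siRNAs if at least two of its three siRNAs passed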", "meaning of the calls": "active = raised luciferase; inactive = no rise", "note": "Shown is an unselected part of about 59,000 reagents tested. About 1,510 of all reagents (2.6%) were called active. 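Calls use total luciferase alone and ignore viability, so some active siRNAs may act by altering cell number.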 Unmarked entries are inactive. The numbers tell different reagents against one gene apart. Further read-outs or replicates are left out here."}
{"gene": "CUTC", "siRNA no.": 1, "total luciferase, z-score": -0.169}
{"gene": "CUTC", "siRNA no.": 2, "total luciferase, z-score": -0.208}
{"gene": "CUTC", "siRNA no.": 3, "total luciferase, z-score": -0.284}
{"gene": "CCDC184", "siRNA no.": 1, "total luciferase, z-score": 0.807}
{"gene": "CCDC184", "siRNA no.": 2, "total luciferase, z-score": -1.88}
{"gene": "CCDC184", "siRNA no.": 3, "total luciferase, z-score": 0.345}
{"gene": "NOL8", "siRNA no.": 1, "total luciferase, z-score": -0.924}
{"gene": "NOL8", "siRNA no.": 2, "total luciferase, z-score": -0.632}
{"gene": "NOL8", "siRNA no.": 3, "total luciferase, z-score": -2.2}
{"gene": "SH3TC2-DT", "siRNA no.": 1, "total luciferase, z-score": 0.88}
{"gene": "SH3TC2-DT", "siRNA no.": 2, "total luciferase, z-score": 0.228}
{"gene": "SH3TC2-DT", "siRNA no.": 3, "total luciferase, z-score": 0.779}
{"gene": "SH3TC2-DT", "siRNA no.": 4, "total luciferase, z-score": 0.184}
{"gene": "SH3TC2-DT", "siRNA no.": 5, "total luciferase, z-score": -0.356}
{"gene": "SH3TC2-DT", "siRNA no.": 6, "total luciferase, z-score": -0.523}
{"gene": "TGFB1", "siRNA no.": 1, "total luciferase, z-score": -0.155}
{"gene": "TGFB1", "siRNA no.": 2, "total luciferase, z-score": 1.04}
{"gene": "TGFB1", "siRNA no.": 3, "total luciferase, z-score": -1.27}
{"gene": "TIMM17B", "siRNA no.": 1, "total luciferase, z-score": 2.25}
{"gene": "TIMM17B", "siRNA no.": 2, "total luciferase, z-score": -0.682}
{"gene": "TIMM17B", "siRNA no.": 3, "total luciferase, z-score": 0.773}
{"gene": "BORCS8", "siRNA no.": 1, "total luciferase, z-score": 0.128}
{"gene": "BORCS8", "siRNA no.": 2, "total luciferase, z-score": -0.449}
{"gene": "BORCS8", "siRNA no.": 3, "total luciferase, z-score": 0.252}
{"gene": "AP1B1", "siRNA no.": 1, "total luciferase, z-score": 0.73}
{"gene": "AP1B1", "siRNA no.": 2, "total luciferase, z-score": -0.965}
{"gene": "AP1B1", "siRNA no.": 3, "total luciferase, z-score": 0.603}
{"gene": "XRCC6", "siRNA no.": 1, "total luciferase, z-score": 1.71}
{"gene": "XRCC6", "siRNA no.": 2, "total luciferase, z-score": 0.057}
{"gene": "XRCC6", "siRNA no.": 3, "total luciferase, z-score": -0.479}
{"gene": "LOC653303", "siRNA no.": 1, "total luciferase, z-score": "3.69 (active)"}
{"gene": "LOC653303", "siRNA no.": 2, "total luciferase, z-score": 2.58}
{"gene": "LOC653303", "siRNA no.": 3, "total luciferase, z-score": 1.47}

Not a retest: entries from further up.
{"gene": "CCDC184", "siRNA no.": 2, "total luciferase, z-score": -1.88}
{"gene": "CCDC184", "siRNA no.": 3, "total luciferase, z-score": 0.345}
{"gene": "NOL8", "siRNA no.": 1, "total luciferase, z-score": -0.924}
